Experimental data from paper PMC7346121.
Results are given in words; binding and its absence hold for the method and conditions named. In cells and extracts the contact can be indirect. Some entries that bind do so weakly or less than the wild type. Tags and fused reporters may be left off the sequences shown.

Chains of the proteins cited; added tags and fusions are not shown.
UniProt P40763: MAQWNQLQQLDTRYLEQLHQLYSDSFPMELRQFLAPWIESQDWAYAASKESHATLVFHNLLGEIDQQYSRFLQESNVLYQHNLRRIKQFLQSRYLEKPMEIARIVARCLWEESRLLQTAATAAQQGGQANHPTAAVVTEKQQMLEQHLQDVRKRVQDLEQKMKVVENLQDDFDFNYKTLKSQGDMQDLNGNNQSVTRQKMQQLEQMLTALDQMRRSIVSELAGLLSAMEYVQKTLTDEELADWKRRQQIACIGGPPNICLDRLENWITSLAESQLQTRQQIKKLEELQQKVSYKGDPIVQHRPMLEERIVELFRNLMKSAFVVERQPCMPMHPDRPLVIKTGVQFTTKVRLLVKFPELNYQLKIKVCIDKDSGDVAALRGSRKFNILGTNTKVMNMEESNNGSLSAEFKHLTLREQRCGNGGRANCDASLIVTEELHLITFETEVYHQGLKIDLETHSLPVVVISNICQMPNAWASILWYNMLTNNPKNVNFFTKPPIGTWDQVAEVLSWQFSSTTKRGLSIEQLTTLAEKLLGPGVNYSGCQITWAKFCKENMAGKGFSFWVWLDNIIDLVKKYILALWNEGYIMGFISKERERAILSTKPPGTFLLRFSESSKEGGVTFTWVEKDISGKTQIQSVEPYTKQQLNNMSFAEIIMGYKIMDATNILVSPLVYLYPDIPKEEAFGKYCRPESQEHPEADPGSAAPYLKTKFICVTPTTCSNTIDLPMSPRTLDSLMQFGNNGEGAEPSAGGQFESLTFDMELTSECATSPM

Molecular target: Signal transducer and activator of transcription 3 (STAT3), FLAG-tagged (UniProt P40763)
Experiment: co-IP; HepG2 cells transfected with HA-SMILE and FLAG-STAT3, with or without IL-6 for 12 h; whole-cell lysate in IP lysis buffer, anti-FLAG M2 affinity gel for 16 h, elution with 3X FLAG peptide, blot with anti-HA and anti-FLAG

B1: Small heterodimer partner-interacting leucine zipper protein (SMILE)/CREBZF, HA-tagged (pcDNA3-HA-hSMILE) (protein, UniProt Q9NS37 1-354)
chain: MRHSLTKLLAASGSNSPTRSESPEPAATCSLPSDLTRAAAGEEETAAAGSPGRKQQFGDEGELEAGRGSRGGVAVRAPSPEEMEEEAIASLPGEETEDMDFLSGLELADLLDPRQPDWHLDPGLSSPGPLSSSGGGSDSGGLWRGDDDDEAAAAEMQRFSDLLQRLLNGIGGCSSSSDSGSAEKRRRKSPGGGGGGGSGNDNNQAATKSPRKAAAAAARLNRLKKKEYVMGLESRVRGLAAENQELRAENRELGKRVQALQEESRYLRAVLANETGLARLLSRLSGVGLRLTTSLFRDSPAGDHDYALPVGKQKQDLLEEDDSAGGVCLHVDKDKVSVEFCSACARKASSSLKM
- binding: binds
